The exact form of at least one protein or probe is not confirmed. At least one verdict rests on a figure or table, not on a statement of the authors.
Target: RAD51 WT (human) (UniProt Q06609)
Assay: EMSA
Settings: 2 mM AMP-PNP, 10 mM Mg2+; 20 mM Hepes-NaOH pH 7.5, 0.1 mg/ml BSA, 1 mM DTT, 10 mM MgCl2, 150 mM KCl, 2 mM ATP or AMP-PNP or no nucleotide, 2.7 uM (nt) DNA, 37 C 10 min; 8% native PAGE in 1x TBE; recombinant protein; protein details: N-terminal His-tag removed with thrombin; label: 5'-Cy5 on strand 1

Chains of the proteins cited; added tags and fusions are not shown.
UniProt Q06609, whole entry: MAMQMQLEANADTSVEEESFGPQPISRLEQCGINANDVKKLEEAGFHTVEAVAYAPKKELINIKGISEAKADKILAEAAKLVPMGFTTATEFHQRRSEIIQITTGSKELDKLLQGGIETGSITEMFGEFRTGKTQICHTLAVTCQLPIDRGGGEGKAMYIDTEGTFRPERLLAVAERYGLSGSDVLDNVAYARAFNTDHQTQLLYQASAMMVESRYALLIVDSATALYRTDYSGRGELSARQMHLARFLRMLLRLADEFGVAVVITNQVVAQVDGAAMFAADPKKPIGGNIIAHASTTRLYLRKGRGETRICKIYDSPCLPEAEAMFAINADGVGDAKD

“TAATACAAAATAAGTAAATGAATAAACAGAGAAAATAAAG (double strand) [Cy5-OL4/OL5 40-mer]”: binds.

From publication PMC10716581
